Reference: PubChem BioAssay AID248 (DTP/NCI, 2004)
The list does not hold the whole screen: its compounds were picked by chemical class. Other doses and runs of a compound may be missing. T/C: endpoint of the treated group in % of that of the vehicle group. For survival time, the PubChem record calls one and a half times the control and up active, and a quarter to a half above the control has no call in these data; cut-offs in other NCI protocols can differ. Schedules are NCI's codes, read here as Q, the interval in days (D) or hours (H), X, the number of doses. Some T/C values are marked as having no survivor count here; that says nothing about deaths at the dose.

Tested on: L1210 leukemia ip in BDF1 mice, survival T/C
Assay: NCI In Vivo Anticancer Drug Screen. Data for tumor model L1210 Leukemia (intraperitoneal) in B6D2F1 (BDF1) mice
Settings: T/C endpoint: mean survival time, higher T/C = longer survival

In the case of `CC(=O)OCC12CCC(C)=CC1OC1C(O)C(OC(C)=O)C2(C)C12CO2` (stereo not given), the T/C (dose: 2.0 mg/kg/injection, schedule: Q08DX002 (ip), vehicle: saline) is reported as 100 % of control [survivor count not shown], the T/C (dose: 3.2 mg/kg/injection, schedule: Q01DX009 (ip), vehicle: other) is reported as 101 % of control [survivor count not shown] and the T/C (dose: 3.2 mg/kg/injection, schedule: Q01DX013 (im), vehicle: saline) is reported as 108 % of control [survivor count not shown]. The T/C (dose: 3.2 mg/kg/injection, schedule: Q01DX013 (ip), vehicle: saline) was 144 % of control [survivor count not shown], the T/C (dose: 3.2 mg/kg/injection, schedule: Q01DX013 (oral), vehicle: saline) was 151 % of control [survivor count not shown] and the T/C (dose: 3.2 mg/kg/injection, schedule: Q01DX013 (sc), vehicle: saline) was 101 % of control [survivor count not shown]. For the same compound, the T/C (dose: 4.0 mg/kg/injection, schedule: Q01DX001 (ip), vehicle: saline, evaluated on day 30) was 118 % of control [survivor count not shown], the T/C (dose: 4.0 mg/kg/injection, schedule: Q01DX001 (ip), vehicle: saline, evaluated on day 60) was 107 % of control [survivor count not shown] and the T/C (dose: 4.0 mg/kg/injection, schedule: Q01DX001 (oral), vehicle: saline) was 106 % of control [survivor count not shown]. The T/C (dose: 4.0 mg/kg/injection, schedule: Q01DX001 (sc), vehicle: saline) was 113 % of control [survivor count not shown], the T/C (dose: 4.0 mg/kg/injection, schedule: Q01DX009 (ip), vehicle: saline, evaluated on day 30) was 127 % of control [survivor count not shown] and the T/C (dose: 4.0 mg/kg/injection, schedule: Q01DX009 (ip), vehicle: saline, evaluated on day 60) was 141 % of control [survivor count not shown]. For the same compound, the T/C (dose: 4.0 mg/kg/injection, schedule: Q01DX009 (sc), vehicle: saline) was 115 % of control [survivor count not shown], the T/C (dose: 4.0 mg/kg/injection, schedule: Q02DX005 (ip), vehicle: saline) was 127 % of control [survivor count not shown] and the T/C (dose: 4.0 mg/kg/injection, schedule: Q03DX003 (ip), vehicle: other) was 96 % of control [survivor count not shown]. For the same compound, the T/C (dose: 4.0 mg/kg/injection, schedule: Q04DX003 (ip), vehicle: saline, evaluated on day 30) was 120 % of control [survivor count not shown], the T/C (dose: 4.0 mg/kg/injection, schedule: Q04DX003 (ip), vehicle: saline, evaluated on day 60) was 100 % of control [survivor count not shown] and the T/C (dose: 4.0 mg/kg/injection, schedule: Q05DX001 (ip), vehicle: saline) was 111 % of control [survivor count not shown]. The T/C (dose: 4.0 mg/kg/injection, schedule: Q08DX002 (ip), vehicle: saline) was 114 % of control [survivor count not shown], the T/C (dose: 4.7 mg/kg/injection, schedule: Q01DX009 (ip), vehicle: saline with Tween-80) was 136 % of control [survivor count not shown] and the T/C (dose: 6.4 mg/kg/injection, schedule: Q01DX013 (im), vehicle: saline) was 94 % of control [survivor count not shown]. For the same compound, the T/C (dose: 6.4 mg/kg/injection, schedule: Q01DX013 (ip), vehicle: saline) was 116 % of control [survivor count not shown], the T/C (dose: 7.0 mg/kg/injection, schedule: Q01DX009 (ip), vehicle: saline with Tween-80) was 132 % of control [survivor count not shown] and the T/C (dose: 8.0 mg/kg/injection, schedule: Q01DX001 (ip), vehicle: saline, evaluated on day 30) was 113 % of control [survivor count not shown]. For the same compound, the T/C (dose: 8.0 mg/kg/injection, schedule: Q01DX001 (ip), vehicle: saline, evaluated on day 60) was 109 % of control [survivor count not shown], the T/C (dose: 8.0 mg/kg/injection, schedule: Q01DX001 (oral), vehicle: saline) was 108 % of control [survivor count not shown] and the T/C (dose: 8.0 mg/kg/injection, schedule: Q01DX009 (ip), vehicle: acetone) was 105 % of control [survivor count not shown]. For the same compound, the T/C (dose: 8.0 mg/kg/injection, schedule: Q01DX009 (ip), vehicle: saline) was 118 % of control [survivor count not shown], the T/C (dose: 8.0 mg/kg/injection, schedule: Q01DX009 (sc), vehicle: saline) was 90 % of control [survivor count not shown] and the T/C (dose: 8.0 mg/kg/injection, schedule: Q02DX005 (ip), vehicle: saline) was 127 % of control [survivor count not shown]. For the same compound, the T/C (dose: 8.0 mg/kg/injection, schedule: Q04DX003 (ip), vehicle: saline, evaluated on day 30) was 122 % of control [survivor count not shown], the T/C (dose: 8.0 mg/kg/injection, schedule: Q04DX003 (ip), vehicle: saline, evaluated on day 60) was 103 % of control [survivor count not shown] and the T/C (dose: 8.0 mg/kg/injection, schedule: Q04DX003 (oral), vehicle: saline) was 141 % of control [survivor count not shown]. The T/C (dose: 8.0 mg/kg/injection, schedule: Q05DX001 (ip), vehicle: saline) was 111 % of control [survivor count not shown] and the T/C (dose: 8.0 mg/kg/injection, schedule: Q08DX002 (ip), vehicle: saline) was 111 % of control [survivor count not shown].
